Results deposited as PubChem BioAssay AID1259254 (NCATS, 2017)
The deposit covers about 59,000 reagents; below is an unselected part. In the full data, about 1,550 (2.6%) got an active call. 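G2 share is only a proxy for re-replication; each gene was hit by three separate siRNAs, and active genes were retested.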 Raw values vary from plate to plate and are shown uncorrected. Reagents against one gene are numbered here. Not stated in the record: the amount of reagent.

- Purpose: 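Finding genes that stop cells copying their DNA twice in one cycle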 (primary screen)
- Cells: human HCT116 colorectal cancer cells
- Reagent: single siRNA against human genes
- Duration: 3 days
- Measurement: 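Imaged Hoechst DNA stain sorts each cell into a cycle phase by DNA amount; per plate, G2 fraction set to 0% for non-targeting and 100% for GMNN siRNA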
- Direction: G2 robust z-score and G2 cells, % of GMNN control: higher = more G2 cells, more excess DNA replication; raw share of cells in G2: higher = larger share of cells with G2 DNA content
- Hit rule: 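An siRNA counts as active if its G2 robust z-score lies at least 5 MADs above the screen median; here such calls match roughly 38% of GMNN control or more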

G2 robust z-score	G2 cells, % of GMNN control	raw share of cells in G2 (%)	Outcome	gene symbol	reagent no.
-1.48	-7.45	3.15	inactive	PRKD3 (protein kinase D3)	1
-0.87	-3.16	4.35	inactive	PRKD3 (protein kinase D3)	2
-1.43	-7.08	1.53	inactive	PRKD3 (protein kinase D3)	3
1.07	10.5	10.3	inactive	BAIAP2 (BAR/IMD domain containing adaptor protein 2)	1
-0.446	-0.173	3.79	inactive	BAIAP2 (BAR/IMD domain containing adaptor protein 2)	2
-0.714	-2.06	5.67	inactive	BAIAP2 (BAR/IMD domain containing adaptor protein 2)	3
1.71	15	11.8	inactive	SART1	1
0.338	5.34	6.01	inactive	SART1	2
0.0413	3.26	4.5	inactive	SART1	3
0.345	5.39	6.44	inactive	TSPAN15 (tetraspanin 15)	1
-1.01	-4.14	2.15	inactive	TSPAN15 (tetraspanin 15)	2
-0.219	1.43	3.8	inactive	TSPAN15 (tetraspanin 15)	3
-0.0633	2.52	4.6	inactive	NAIPP3 (NAIP pseudogene 3)	1
2.43	20	11	inactive	NAIPP3 (NAIP pseudogene 3)	2
0.355	5.47	4.98	inactive	NAIPP3 (NAIP pseudogene 3)	3
-0.445	-0.164	5.3	inactive	LIPA (lipase A, lysosomal acid type)	1
-0.636	-1.51	2.7	inactive	LIPA (lipase A, lysosomal acid type)	2
3.14	25	15.4	inactive	LIPA (lipase A, lysosomal acid type)	3
7.33	54.5	30	active	VPS9D1 (VPS9 domain containing 1)	1
0.684	7.78	7.19	inactive	VPS9D1 (VPS9 domain containing 1)	2
-0.234	1.32	3.89	inactive	VPS9D1 (VPS9 domain containing 1)	3
-0.474	-0.371	3.44	inactive	STOX1 (storkhead box 1)	1
0.306	5.12	4.88	inactive	STOX1 (storkhead box 1)	2
0.658	7.6	5.62	inactive	STOX1 (storkhead box 1)	3
0.977	9.84	7.37	inactive	SMAD3 (SMAD family member 3)	1
1.14	11	10	inactive	SMAD3 (SMAD family member 3)	2
0.862	9.03	6.39	inactive	SMAD3 (SMAD family member 3)	3

The list goes on; the last 2 above are carried over.
G2 robust z-score	G2 cells, % of GMNN control	raw share of cells in G2 (%)	Outcome	gene symbol	reagent no.
1.14	11	10	inactive	SMAD3 (SMAD family member 3)	2
0.862	9.03	6.39	inactive	SMAD3 (SMAD family member 3)	3
1.36	12.5	8.98	inactive	ADAR (adenosine deaminase RNA specific)	1
-0.0706	2.47	5.95	inactive	ADAR (adenosine deaminase RNA specific)	2
-1	-4.1	2.47	inactive	ADAR (adenosine deaminase RNA specific)	3
-0.281	0.989	4.55	inactive	C5orf47 (chromosome 5 open reading frame 47)	1
0.908	9.35	6.07	inactive	C5orf47 (chromosome 5 open reading frame 47)	2
1.74	15.2	8.09	inactive	C5orf47 (chromosome 5 open reading frame 47)	3
-0.316	0.741	5.01	inactive	ACOT12 (acyl-CoA thioesterase 12)	1
2.82	22.8	13	inactive	ACOT12 (acyl-CoA thioesterase 12)	2
-0.282	0.985	6.43	inactive	ACOT12 (acyl-CoA thioesterase 12)	3
-0.338	0.592	4.4	inactive	OR6B1 (olfactory receptor family 6 subfamily B member 1)	1
4.23	32.8	13.5	inactive	OR6B1 (olfactory receptor family 6 subfamily B member 1)	2
-0.654	-1.63	1.99	inactive	OR6B1 (olfactory receptor family 6 subfamily B member 1)	3
-0.867	-3.14	3.1	inactive	POLG (DNA polymerase gamma, catalytic subunit)	1
-0.77	-2.45	4.13	inactive	POLG (DNA polymerase gamma, catalytic subunit)	2
0.766	8.36	7.87	inactive	POLG (DNA polymerase gamma, catalytic subunit)	3
-1.27	-5.98	2.68	inactive	AOC1 (amine oxidase copper containing 1)	1
1.94	16.6	11	inactive	AOC1 (amine oxidase copper containing 1)	2
1.85	16	9.94	inactive	AOC1 (amine oxidase copper containing 1)	3
0.596	7.16	8.57	inactive	TSPAN2 (tetraspanin 2)	1
-1.05	-4.41	2.1	inactive	TSPAN2 (tetraspanin 2)	2
3.56	28	13.6	inactive	TSPAN2 (tetraspanin 2)	3
